Results taken from PubChem BioAssay AID555 (SRMLSC, 2006).
This is one part of the list.

What follows are molecules tested on mevalonate kinase [Streptococcus pneumoniae D39] (assay: S. pneumoniae MK inhibitors, primary screen, biochemical, PK/LDH-coupled NADH absorbance (AID 555)). Settings: purified MK, PK/LDH-coupled NADH absorbance 340 nm; measured here: pilot screen replicates; at 10 µM; stronger effect = higher value.

| SMILES | inhibition |
| --- | --- |
| CN(C)CCOC(=O)C(O)(c1ccccc1)C1CCCCC1 (stereo not given) | 0.5% |
| O=P(Nc1nccs1)(c1ccccc1)c1ccccc1 | 0% |
| CP(=O)(Nc1ccc2c(c1)OCCO2)Oc1ccccc1 (stereo not given) | 6% |
| CP(=O)(Nc1ccccn1)Oc1ccccc1 (stereo not given) | 0% |
| CP(=S)(Nn1cnnc1)Oc1ccccc1 (stereo not given) | 1% |
| O=C(COc1ccccc1)OC1CN2CCC1CC2 (stereo not given) | 3% |
| COP1(=S)c2c(C)nn(CCC#N)c2N=C(c2ccc(F)cc2)N1C (stereo not given) | 0% |
| Cc1nn(-c2ccccc2)c2c1P(=O)(N1CCOCC1)N(C)C(c1ccccc1)=N2 (stereo not given) | 2% |
| CCOP1(=S)c2c(C)nn(CCC#N)c2N=C(c2ccccc2F)N1C (stereo not given) | 0% |
| Cc1ccc(C)c(NP(C)(=O)Oc2ccccc2)c1 (stereo not given) | 0% |
